In the supplement of paper PMC10849652:
This is one part of the list.

Amino acid sequences for entries named in this document (tags omitted). A change or cut given only in a name is not applied to a line headed by its entry.
UniProt P04040: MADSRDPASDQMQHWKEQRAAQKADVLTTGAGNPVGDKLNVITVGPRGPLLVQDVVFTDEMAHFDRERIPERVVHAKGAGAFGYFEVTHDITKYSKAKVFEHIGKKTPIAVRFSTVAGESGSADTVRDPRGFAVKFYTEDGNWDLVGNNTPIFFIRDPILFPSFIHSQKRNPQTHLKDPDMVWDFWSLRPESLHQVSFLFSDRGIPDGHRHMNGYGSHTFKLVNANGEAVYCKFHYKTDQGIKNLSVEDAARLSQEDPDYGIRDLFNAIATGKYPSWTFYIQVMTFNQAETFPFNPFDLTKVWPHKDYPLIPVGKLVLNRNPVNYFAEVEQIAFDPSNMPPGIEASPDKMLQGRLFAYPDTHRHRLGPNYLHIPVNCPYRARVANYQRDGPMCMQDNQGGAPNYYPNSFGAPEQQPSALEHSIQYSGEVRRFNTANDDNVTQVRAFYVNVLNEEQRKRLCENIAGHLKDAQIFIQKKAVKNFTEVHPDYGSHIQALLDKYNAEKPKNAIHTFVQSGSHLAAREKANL
UniProt Q13042, whole entry, looked up: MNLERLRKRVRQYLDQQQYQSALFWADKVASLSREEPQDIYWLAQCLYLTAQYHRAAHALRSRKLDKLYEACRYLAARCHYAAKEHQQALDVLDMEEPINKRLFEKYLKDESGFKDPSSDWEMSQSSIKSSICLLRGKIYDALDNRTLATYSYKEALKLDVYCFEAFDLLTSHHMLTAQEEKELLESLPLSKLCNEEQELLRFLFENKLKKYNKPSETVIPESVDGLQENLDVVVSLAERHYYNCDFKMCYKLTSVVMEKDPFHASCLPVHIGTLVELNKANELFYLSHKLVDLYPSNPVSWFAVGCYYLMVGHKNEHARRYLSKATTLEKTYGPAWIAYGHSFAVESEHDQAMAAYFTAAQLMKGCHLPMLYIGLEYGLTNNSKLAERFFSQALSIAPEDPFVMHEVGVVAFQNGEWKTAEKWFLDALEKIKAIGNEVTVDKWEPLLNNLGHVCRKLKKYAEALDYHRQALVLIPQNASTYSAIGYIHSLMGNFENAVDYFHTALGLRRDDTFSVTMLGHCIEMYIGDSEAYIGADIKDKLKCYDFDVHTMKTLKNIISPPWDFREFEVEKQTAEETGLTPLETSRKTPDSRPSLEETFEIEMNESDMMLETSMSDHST
UniProt P20810: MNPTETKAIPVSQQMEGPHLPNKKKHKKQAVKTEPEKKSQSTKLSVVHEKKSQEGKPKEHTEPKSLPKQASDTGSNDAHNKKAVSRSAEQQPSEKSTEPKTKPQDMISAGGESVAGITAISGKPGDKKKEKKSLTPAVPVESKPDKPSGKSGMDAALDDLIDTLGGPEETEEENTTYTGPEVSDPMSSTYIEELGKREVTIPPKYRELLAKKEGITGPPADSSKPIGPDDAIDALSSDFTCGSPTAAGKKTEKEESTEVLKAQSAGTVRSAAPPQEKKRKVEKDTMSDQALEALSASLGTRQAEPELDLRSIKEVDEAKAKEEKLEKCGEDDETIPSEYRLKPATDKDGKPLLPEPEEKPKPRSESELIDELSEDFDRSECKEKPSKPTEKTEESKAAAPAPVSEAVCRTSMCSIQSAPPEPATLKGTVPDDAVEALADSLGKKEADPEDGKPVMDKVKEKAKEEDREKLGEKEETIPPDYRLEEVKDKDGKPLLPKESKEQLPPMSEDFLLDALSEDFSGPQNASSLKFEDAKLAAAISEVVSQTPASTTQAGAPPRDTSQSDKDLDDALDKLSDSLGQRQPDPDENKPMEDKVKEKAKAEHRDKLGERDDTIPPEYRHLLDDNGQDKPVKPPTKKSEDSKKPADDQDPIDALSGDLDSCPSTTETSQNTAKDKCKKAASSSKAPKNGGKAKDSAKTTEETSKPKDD
UniProt P13987: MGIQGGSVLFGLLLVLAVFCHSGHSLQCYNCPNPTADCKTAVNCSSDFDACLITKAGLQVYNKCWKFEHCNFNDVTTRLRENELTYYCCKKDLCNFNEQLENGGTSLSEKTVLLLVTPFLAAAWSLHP
UniProt Q5T0F9: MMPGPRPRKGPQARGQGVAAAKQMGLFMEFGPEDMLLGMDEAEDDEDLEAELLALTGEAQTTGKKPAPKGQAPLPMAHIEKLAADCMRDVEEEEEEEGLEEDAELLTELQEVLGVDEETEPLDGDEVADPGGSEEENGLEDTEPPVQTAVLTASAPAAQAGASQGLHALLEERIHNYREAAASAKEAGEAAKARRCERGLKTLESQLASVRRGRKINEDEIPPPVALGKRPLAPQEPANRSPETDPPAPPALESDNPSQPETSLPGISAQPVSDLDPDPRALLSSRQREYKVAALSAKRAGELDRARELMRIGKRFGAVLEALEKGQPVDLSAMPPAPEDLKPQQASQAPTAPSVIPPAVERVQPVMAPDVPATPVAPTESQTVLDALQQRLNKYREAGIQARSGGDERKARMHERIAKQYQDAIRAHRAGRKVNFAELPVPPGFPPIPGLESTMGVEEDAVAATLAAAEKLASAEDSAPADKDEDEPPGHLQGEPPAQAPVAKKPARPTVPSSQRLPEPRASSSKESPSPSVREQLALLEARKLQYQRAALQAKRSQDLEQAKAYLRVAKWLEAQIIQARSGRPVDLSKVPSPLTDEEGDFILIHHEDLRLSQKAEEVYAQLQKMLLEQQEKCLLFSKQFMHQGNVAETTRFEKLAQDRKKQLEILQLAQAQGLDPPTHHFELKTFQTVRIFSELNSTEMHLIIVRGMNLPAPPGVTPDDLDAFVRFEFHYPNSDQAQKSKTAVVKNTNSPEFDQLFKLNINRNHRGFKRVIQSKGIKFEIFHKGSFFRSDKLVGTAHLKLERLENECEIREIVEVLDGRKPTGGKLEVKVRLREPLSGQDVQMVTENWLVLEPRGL
UniProt Q8IWD4: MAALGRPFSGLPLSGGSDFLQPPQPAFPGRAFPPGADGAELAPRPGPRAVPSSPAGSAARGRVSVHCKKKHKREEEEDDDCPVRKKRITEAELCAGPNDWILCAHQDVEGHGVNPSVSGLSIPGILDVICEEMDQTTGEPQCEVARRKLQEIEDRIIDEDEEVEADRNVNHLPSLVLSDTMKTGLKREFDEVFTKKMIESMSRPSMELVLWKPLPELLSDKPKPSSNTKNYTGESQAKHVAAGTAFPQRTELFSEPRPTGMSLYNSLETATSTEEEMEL
UniProt Q8WUD4: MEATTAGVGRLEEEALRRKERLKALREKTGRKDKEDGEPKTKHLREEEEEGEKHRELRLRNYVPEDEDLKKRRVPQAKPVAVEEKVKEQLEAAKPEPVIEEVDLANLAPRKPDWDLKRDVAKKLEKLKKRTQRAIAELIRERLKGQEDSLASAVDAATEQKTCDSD
UniProt P60953, whole entry, looked up: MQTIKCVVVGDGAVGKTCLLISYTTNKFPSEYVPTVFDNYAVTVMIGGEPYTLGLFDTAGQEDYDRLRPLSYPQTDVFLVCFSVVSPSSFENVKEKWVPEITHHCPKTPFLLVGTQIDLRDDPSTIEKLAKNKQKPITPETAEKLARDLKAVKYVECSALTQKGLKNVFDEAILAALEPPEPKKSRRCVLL
UniProt Q96MW1: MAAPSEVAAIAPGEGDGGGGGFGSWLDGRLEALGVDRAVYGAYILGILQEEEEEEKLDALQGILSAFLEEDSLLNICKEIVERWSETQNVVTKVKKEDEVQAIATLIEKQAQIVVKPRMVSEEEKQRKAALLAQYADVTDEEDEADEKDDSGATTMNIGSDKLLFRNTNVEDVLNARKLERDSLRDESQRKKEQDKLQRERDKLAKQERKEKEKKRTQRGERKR
UniProt Q14790: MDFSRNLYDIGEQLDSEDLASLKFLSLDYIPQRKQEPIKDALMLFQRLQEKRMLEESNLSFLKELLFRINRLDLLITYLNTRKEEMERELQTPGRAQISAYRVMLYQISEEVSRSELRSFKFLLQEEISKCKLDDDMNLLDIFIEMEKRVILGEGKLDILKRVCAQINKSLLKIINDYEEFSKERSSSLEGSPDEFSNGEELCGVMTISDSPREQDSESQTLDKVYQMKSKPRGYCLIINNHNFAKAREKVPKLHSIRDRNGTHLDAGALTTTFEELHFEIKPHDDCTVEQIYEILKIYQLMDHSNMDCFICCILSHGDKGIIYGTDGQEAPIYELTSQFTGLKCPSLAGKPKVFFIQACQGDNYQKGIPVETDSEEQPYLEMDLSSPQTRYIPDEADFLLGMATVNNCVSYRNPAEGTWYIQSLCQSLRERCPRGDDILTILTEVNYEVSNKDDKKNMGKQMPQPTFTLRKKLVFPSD
UniProt P49368: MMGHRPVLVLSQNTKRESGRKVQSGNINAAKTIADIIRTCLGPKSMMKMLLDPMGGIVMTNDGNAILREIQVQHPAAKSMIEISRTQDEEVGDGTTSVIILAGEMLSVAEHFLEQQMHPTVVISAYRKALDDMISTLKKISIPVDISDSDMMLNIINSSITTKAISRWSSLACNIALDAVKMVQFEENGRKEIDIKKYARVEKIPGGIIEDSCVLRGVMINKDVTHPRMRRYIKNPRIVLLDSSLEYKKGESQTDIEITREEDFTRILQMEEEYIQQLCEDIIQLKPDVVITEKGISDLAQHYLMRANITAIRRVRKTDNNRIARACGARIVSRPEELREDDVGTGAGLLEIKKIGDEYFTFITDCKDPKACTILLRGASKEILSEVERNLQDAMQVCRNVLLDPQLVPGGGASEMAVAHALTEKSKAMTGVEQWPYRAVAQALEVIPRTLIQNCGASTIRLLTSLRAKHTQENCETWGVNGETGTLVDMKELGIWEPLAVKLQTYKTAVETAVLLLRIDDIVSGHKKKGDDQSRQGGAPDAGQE
UniProt P51946: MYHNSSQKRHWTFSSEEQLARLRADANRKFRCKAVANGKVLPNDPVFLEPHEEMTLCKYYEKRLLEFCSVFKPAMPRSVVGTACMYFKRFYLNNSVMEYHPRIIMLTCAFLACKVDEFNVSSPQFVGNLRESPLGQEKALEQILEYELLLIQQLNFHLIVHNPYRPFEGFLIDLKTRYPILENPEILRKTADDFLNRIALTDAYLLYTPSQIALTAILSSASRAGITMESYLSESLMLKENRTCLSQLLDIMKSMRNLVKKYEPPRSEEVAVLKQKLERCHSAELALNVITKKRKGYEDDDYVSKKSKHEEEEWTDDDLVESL
UniProt Q86WR0: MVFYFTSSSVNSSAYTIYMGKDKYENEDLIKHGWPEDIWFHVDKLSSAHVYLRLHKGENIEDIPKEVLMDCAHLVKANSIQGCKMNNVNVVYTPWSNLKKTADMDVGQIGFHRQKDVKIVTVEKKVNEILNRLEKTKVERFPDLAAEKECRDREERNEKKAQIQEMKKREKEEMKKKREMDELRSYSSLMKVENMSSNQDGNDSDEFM
UniProt Q96F63: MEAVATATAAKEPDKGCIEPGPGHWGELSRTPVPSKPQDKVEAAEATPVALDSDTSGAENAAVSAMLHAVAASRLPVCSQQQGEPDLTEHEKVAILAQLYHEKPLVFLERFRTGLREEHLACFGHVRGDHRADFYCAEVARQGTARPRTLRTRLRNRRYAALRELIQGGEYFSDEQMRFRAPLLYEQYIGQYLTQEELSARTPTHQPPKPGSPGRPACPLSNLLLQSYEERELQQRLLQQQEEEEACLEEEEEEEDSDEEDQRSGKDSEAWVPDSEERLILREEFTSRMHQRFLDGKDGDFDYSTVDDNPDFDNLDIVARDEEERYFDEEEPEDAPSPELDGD
UniProt Q96ER9: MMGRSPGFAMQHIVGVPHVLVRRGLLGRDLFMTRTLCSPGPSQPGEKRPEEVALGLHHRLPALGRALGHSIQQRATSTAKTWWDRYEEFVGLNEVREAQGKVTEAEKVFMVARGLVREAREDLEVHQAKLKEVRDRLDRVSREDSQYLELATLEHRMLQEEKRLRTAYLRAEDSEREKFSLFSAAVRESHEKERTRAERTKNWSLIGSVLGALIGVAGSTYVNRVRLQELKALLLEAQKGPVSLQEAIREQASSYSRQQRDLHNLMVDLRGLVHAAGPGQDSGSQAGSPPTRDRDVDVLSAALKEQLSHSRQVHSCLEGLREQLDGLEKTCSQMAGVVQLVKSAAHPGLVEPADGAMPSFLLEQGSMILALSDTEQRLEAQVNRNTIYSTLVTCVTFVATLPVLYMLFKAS
UniProt Q9GZT6: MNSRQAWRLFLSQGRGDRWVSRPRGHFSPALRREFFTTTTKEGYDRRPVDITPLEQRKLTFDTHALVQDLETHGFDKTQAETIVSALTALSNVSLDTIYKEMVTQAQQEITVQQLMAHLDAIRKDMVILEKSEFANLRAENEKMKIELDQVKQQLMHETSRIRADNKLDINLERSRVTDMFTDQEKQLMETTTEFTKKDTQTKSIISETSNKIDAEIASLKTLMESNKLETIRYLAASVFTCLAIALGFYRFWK
UniProt Q8IWP9: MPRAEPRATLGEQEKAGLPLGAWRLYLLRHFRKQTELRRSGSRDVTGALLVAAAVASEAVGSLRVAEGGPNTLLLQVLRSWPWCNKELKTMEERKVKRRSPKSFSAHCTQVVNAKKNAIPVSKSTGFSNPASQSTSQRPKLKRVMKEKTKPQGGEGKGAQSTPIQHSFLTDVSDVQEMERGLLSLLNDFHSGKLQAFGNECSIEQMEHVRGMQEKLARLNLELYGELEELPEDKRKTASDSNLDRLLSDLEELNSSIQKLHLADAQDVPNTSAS

Assays:
Assay in all cases: log2 fold change, soluble protein after heating vs DMSO (PISA); higher = thermal stabilisation; K562 cells, 10 uM, 30 min; active = over 0.2 and 3.5 SD of the protein, either way, in both replicates (recomputed)
[1] = compound: CC[C@@H]1C(=O)N(C)c2cnc(Nc3ccc(C(=O)NC4CCN(C)CC4)cc3OC)nc2N1C1CCCC1
Method in brief: (§1)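 For each measurement, 10 μM compound was applied for 30 min to K562 cells at 2×10^6 cells/mL. Aliquots were heated for 3 min across 48°C-58°C, pooled, and extracted in PBS with 0.5% NP-40 at 4°C; the supernatant after 21,000xg for 90 min was soluble protein. This was quantified by TMTpro 16plex LC-MS/MS with channel sums equalised, and thermal stability was reported relative to control samples from duplicates, on a log2 fold-change scale.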

[2] = compound: CC[C@@H]1C(=O)N(C)c2cnc(Nc3ccc(C(=O)N[C@H]4CC[C@H](N5CCN(CC6CC6)CC5)CC4)cc3OC)nc2N1C(C)C [volasertib]
Method in brief: as §1

[3] = compound: CC[C@H](C)N1C=C(C2=C(C=C(C=C21)C3=CN=C(C=C3)N4CCNCC4)C(=O)NCC5=C(C=C(NC5=O)C)C)C
Method in brief: as §1

[4] = compound: CC[C@H](C)[C@@H](C(=O)N[C@@H]([C@@H](C)O)C(=O)N[C@@H](CC(C)C)C(=O)[C@]1(CO1)C)NC(=O)[C@H]([C@@H](C)CC)N(C)C(=O)C [epoxomicin]
Method in brief: as §1

[5] = compound: CCn1c(C(=O)N(C2CC2)C2CC2)cc2c3c(ncn3C)c(Nc3cc(C)n(C)n3)nc21
Method in brief: as §1

[6] = compound: CCn1cc(-c2ccnc3[nH]c(-c4cccc(CN(C)C)c4)cc23)c(-c2ccc(NC(=O)N(C)C)cc2)n1
Method in brief: as §1

[7] = compound: CN(C)CC(=O)Nc1ccc2[nH]c(=O)c3ccccc3c2c1
Method in brief: as §1

[8] = compound: CN(CCOC1=CC=C(C=C1)C[C@H]2C(=O)NC(=O)S2)C3=CC=CC=N3 (racemic) [rosiglitazone]
Method in brief: as §1

[9] = compound: CN1C2=C(C3=C1C(=O)N(N=C3)CC4=CC(=CC=C4)N)SC(=C2)S(=O)C
Method in brief: as §1

[10] = compound: CN1CCC(CNc2ccc3ncc(-c4cccc(OC(F)(F)F)c4)n3n2)CC1
Method in brief: as §1

Measured: log2 fold change

CAT (UniProt P04040)
inactive: [1] -0.013 | [2] 0.04 | [3] -0.039 | [4] -0.028 | [5] -0.006 | [6] -0.018 | [7] 0.001 | [8] -0.007 | [9] 0.033 | [10] 0.01

CDC16 (UniProt Q13042)
inactive: [1] 0 | [2] -0.117 | [3] 0.033 | [4] 0.026 | [5] 0.02 | [6] 0.013 | [7] 0.005 | [8] 0.002 | [9] 0.007 | [10] 0.016

CBLB (UniProt Q13191)
inactive: [1] 0.012 | [2] -0.033 | [3] 0.026 | [4] -0.149 | [5] -0.109 | [6] -0.053 | [7] 0.065 | [8] -0.135 | [9] -0.032 | [10] -0.003

CAST isoform 6 (UniProt P20810)
inactive: [1] 0.015 | [2] 0.07 | [3] -0.048 | [4] -0.003 | [5] -0.006 | [6] -0.011 | [7] -0.008 | [8] -0.008 | [9] -0.023 | [10] -0.062

CD59 isoform 2 (UniProt P13987)
inactive: [1] 0.097 | [2] 0.202 | [3] -0.02 | [4] -0.026 | [5] 0.035 | [6] 0.04 | [7] -0.045 | [8] -0.073 | [9] 0.001 | [10] 0.057

CCDC93 (UniProt Q567U6)
inactive: [1] -0.072 | [2] -0.138 | [3] 0.108 | [4] -0.01 | [5] -0.041 | [6] 0.002 | [7] -0.03 | [8] 0.037 | [9] 0.008 | [10] -0.126

CC2D1B isoform 2 (UniProt Q5T0F9)
inactive: [1] -0.041 | [2] -0.115 | [3] 0.051 | [4] -0.047 | [5] -0.039 | [6] -0.007 | [7] 0.011 | [8] 0.048 | [9] 0.118 | [10] -0.121

CCDC117 (UniProt Q8IWD4)
inactive: [1] 0.001 | [2] 0.068 | [3] -0.17 | [4] 0.028 | [5] 0.115 | [6] -0.053 | [7] -0.002 | [8] 0.043 | [9] 0.026 | [10] -0.194

CDC34 (UniProt P49427)
inactive: [1] -0.351 | [2] -0.368 | [3] 0.038 | [4] -0.158 | [5] -0.095 | [6] -0.052 | [7] 0.119 | [8] 0.15 | [9] 0.057 | [10] -0.358

CCDC12 (UniProt Q8WUD4)
inactive: [1] -0.027 | [2] 0.082 | [3] -0.054 | [4] 0.032 | [5] -0.021 | [6] -0.015 | [7] -0.011 | [8] 0 | [9] 0.002 | [10] -0.045

CDC42 isoform 1 (UniProt P60953)
inactive: [1] 0.062 | [2] 0.076 | [3] -0.064 | [4] 0.01 | [5] 0.012 | [6] 0.024 | [7] -0.034 | [8] 0.023 | [9] -0.013 | [10] 0.024

Two entries picked at random from the list so far, as already listed:
CCDC117 (UniProt Q8IWD4)
inactive: [1] 0.001 | [2] 0.068 | [3] -0.17 | [4] 0.028 | [5] 0.115 | [6] -0.053 | [7] -0.002 | [8] 0.043 | [9] 0.026 | [10] -0.194

CCDC12 (UniProt Q8WUD4)
inactive: [1] -0.027 | [2] 0.082 | [3] -0.054 | [4] 0.032 | [5] -0.021 | [6] -0.015 | [7] -0.011 | [8] 0 | [9] 0.002 | [10] -0.045

Next part:

CCDC91 (UniProt Q7Z6B0)
inactive: [1] 0.081 | [2] 0.019 | [3] 0.031 | [4] 0.034 | [5] -0.031 | [6] -0.044 | [7] -0.034 | [8] 0 | [9] -0.038 | [10] 0.003

CCDC127 (UniProt Q96BQ5)
inactive: [1] 0.026 | [2] 0.071 | [3] 0.026 | [4] 0.074 | [5] -0.004 | [6] 0.112 | [7] -0.022 | [8] -0.08 | [9] -0.019 | [10] 0.147

CCDC43 (UniProt Q96MW1)
inactive: [1] -0.034 | [2] -0.008 | [3] -0.03 | [4] -0.004 | [5] -0.041 | [6] 0.073 | [7] -0.001 | [8] 0.009 | [9] -0.094 | [10] 0.066

CASP8 isoform 9 (UniProt Q14790)
inactive: [1] 0.025 | [3] 0.065 | [4] 0.052 | [6] -0.019 | [7] 0 | [9] -0.026 | [10] -0.082
active: [2] -0.489

CDC42 (UniProt P60953)
inactive: [1] -0.175 | [2] 0.064 | [3] -0.035 | [4] 0.182 | [5] 0 | [6] -0.049 | [7] -0.039 | [8] -0.084 | [9] -0.098 | [10] 0.062

CCT5 (UniProt P48643)
inactive: [1] 0.002 | [2] 0.01 | [3] 0.004 | [4] 0.027 | [5] 0.004 | [6] 0.036 | [7] -0.004 | [8] 0.015 | [9] -0.03 | [10] 0.008

CCT3 (UniProt P49368)
inactive: [1] -0.007 | [2] 0.011 | [3] -0.005 | [4] -0.092 | [5] -0.011 | [6] 0.027 | [7] -0.003 | [8] 0.002 | [9] -0.03 | [10] -0.066

CCNH (UniProt P51946)
inactive: [1] -0.034 | [2] -0.028 | [3] 0.021 | [4] -0.024 | [6] 0.046 | [7] -0.019 | [9] -0.069 | [10] 0.005

CCDC25 (UniProt Q86WR0)
inactive: [1] 0.03 | [2] -0.022 | [3] 0.085 | [4] 0.023 | [5] -0.072 | [6] -0.057 | [7] 0.013 | [8] 0.058 | [9] -0.022 | [10] -0.077

CCDC97 (UniProt Q96F63)
inactive: [1] -0.096 | [2] -0.32 | [3] 0.094 | [4] 0.06 | [5] 0.031 | [7] 0.078 | [8] -0.099 | [9] 0.054

CARNMT1 (UniProt Q8N4J0)
inactive: [1] -0.012 | [2] -0.057 | [3] 0.015 | [4] -0.018 | [5] 0 | [6] -0.074 | [7] 0.023 | [8] 0.026 | [9] -0.053 | [10] 0.024

CD3EAP isoform 2 (UniProt O15446)
inactive: [1] 0.179 | [2] 0.147 | [3] 0.022 | [4] -0.164 | [5] 0.004 | [6] 0.124 | [7] -0.107 | [8] -0.093 | [9] 0.129 | [10] 0.062

CCDC51 (UniProt Q96ER9)
inactive: [1] -0.064 | [2] -0.028 | [3] 0.006 | [4] 0.097 | [5] 0.039 | [6] -0.029 | [7] -0.003 | [8] -0.006 | [9] -0.115 | [10] -0.101

CARS2 (UniProt Q9HA77)
inactive: [1] 0.016 | [2] -0.017 | [3] -0.053 | [4] -0.03 | [5] 0.009 | [6] -0.036 | [7] -0.022 | [8] 0.048 | [9] -0.019 | [10] 0.035

CCDC22 (UniProt O60826)
inactive: [1] 0.055 | [2] -0.141 | [3] -0.039 | [4] 0.009 | [5] -0.001 | [6] 0.014 | [7] 0.027 | [8] 0.024 | [9] 0.039 | [10] -0.127

CCDC90B (UniProt Q9GZT6)
inactive: [1] 0.007 | [2] -0.007 | [3] -0.015 | [4] 0.039 | [5] -0.008 | [6] -0.008 | [7] -0.047 | [8] 0.06 | [9] 0.013 | [10] 0.094

CDC40 (UniProt O60508)
inactive: [1] 0.275 | [2] 0.251 | [3] 0.044 | [4] -0.25 | [5] -0.057 | [6] 0.124 | [7] -0.09 | [8] -0.148 | [9] 0.229 | [10] 0.289

CCDC28A (UniProt Q8IWP9)
inactive: [1] -0.032 | [2] 0.005 | [3] 0.042 | [4] 0.123 | [5] 0.001 | [7] 0.01 | [8] -0.056 | [9] -0.029

CCT7 (UniProt Q99832)
inactive: [1] -0.02 | [2] 0.035 | [3] 0 | [4] 0.053 | [5] -0.015 | [6] 0.032 | [7] -0.012 | [8] -0.014 | [9] -0.032 | [10] -0.005
